Among the data in publication PMC4654411 are binding values, retold here.

Sequences of proteins named here, by UniProt entry; tags and fusion partners are left off. A change or cut given only in a name is not applied to a line headed by its entry.
UniProt P61586: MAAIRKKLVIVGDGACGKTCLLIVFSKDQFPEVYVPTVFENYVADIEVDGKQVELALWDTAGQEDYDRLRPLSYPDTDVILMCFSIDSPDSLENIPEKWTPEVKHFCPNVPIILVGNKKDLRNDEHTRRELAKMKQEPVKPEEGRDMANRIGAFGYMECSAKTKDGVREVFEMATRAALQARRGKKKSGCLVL
UniProt P21333: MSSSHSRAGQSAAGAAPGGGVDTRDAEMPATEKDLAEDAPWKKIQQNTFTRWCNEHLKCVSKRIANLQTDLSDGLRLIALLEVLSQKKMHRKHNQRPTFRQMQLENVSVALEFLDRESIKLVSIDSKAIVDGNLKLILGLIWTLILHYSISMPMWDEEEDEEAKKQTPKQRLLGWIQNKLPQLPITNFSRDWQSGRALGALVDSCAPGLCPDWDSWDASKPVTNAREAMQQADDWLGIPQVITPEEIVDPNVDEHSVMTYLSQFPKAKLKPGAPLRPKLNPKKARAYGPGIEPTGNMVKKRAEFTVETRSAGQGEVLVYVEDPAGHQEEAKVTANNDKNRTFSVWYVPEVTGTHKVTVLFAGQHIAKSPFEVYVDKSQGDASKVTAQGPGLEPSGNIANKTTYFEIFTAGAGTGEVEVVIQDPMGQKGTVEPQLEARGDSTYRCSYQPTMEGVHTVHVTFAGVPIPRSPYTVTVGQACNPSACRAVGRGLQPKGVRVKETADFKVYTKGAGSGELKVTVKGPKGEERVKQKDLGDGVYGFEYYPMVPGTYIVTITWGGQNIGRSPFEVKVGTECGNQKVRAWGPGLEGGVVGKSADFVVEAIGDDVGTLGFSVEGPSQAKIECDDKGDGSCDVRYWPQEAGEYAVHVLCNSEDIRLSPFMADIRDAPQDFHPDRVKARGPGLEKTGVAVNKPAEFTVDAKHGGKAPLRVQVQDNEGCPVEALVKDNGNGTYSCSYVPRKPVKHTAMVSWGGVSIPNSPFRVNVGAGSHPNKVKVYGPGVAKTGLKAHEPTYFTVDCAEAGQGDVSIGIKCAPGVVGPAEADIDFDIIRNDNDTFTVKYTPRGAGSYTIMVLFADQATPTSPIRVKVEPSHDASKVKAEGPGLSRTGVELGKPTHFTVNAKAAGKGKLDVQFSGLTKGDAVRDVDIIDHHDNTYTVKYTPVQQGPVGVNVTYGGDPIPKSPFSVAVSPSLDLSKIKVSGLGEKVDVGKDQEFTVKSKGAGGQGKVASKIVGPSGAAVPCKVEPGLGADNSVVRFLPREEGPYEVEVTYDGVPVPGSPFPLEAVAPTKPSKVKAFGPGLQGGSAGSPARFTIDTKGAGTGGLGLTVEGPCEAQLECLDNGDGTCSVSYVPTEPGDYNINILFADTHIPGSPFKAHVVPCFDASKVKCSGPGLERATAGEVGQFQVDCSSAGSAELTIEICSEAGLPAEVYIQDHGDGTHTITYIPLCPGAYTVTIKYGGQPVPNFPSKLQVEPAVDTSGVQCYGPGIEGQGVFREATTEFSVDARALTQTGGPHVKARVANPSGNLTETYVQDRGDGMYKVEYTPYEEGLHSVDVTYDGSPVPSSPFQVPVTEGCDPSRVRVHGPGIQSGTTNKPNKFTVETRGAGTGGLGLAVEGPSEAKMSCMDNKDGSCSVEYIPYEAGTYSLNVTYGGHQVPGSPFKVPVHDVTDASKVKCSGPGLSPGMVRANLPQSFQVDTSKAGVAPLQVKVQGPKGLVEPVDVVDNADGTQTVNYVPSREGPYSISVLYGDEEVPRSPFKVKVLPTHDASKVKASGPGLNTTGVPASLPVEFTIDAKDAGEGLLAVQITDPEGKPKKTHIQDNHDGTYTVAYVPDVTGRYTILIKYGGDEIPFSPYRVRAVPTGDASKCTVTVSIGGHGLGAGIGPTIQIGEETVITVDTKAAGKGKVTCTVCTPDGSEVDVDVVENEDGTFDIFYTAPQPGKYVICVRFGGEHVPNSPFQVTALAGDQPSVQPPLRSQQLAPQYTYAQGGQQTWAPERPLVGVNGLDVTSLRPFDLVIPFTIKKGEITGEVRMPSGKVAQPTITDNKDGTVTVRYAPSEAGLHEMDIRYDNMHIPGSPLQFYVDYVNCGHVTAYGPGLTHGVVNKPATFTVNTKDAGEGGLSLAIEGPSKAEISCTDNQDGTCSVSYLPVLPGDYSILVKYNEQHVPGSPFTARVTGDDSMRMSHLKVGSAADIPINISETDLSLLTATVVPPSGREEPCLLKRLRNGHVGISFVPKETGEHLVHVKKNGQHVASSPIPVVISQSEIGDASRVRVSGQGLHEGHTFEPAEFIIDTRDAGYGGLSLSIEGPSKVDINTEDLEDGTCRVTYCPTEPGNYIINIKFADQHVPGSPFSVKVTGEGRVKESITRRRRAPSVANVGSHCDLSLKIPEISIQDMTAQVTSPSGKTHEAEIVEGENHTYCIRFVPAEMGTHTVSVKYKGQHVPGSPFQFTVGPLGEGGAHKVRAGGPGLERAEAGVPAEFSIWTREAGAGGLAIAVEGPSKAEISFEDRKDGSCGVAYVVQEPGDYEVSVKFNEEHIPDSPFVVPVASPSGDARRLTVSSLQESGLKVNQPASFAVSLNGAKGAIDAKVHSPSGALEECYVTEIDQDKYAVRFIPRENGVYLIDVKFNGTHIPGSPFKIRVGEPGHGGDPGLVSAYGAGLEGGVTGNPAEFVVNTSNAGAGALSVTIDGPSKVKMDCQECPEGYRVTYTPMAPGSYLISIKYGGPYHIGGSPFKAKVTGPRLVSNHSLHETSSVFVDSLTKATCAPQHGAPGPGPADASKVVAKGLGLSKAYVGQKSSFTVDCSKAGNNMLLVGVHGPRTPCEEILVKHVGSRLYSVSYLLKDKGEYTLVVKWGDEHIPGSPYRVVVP

Results are given in words; binding and its absence hold for the method and conditions named. Binding seen in cells or lysates may run through a third protein. Some entries that bind do so weakly or less than the wild type. For some assays here: Where a sequence is shown, tags or fusion partners need not be part of it.

The target of assay [1] is T1, Full-length HA-tagged PTPN12 (human) (UniProt Q05209).
T1 sequence: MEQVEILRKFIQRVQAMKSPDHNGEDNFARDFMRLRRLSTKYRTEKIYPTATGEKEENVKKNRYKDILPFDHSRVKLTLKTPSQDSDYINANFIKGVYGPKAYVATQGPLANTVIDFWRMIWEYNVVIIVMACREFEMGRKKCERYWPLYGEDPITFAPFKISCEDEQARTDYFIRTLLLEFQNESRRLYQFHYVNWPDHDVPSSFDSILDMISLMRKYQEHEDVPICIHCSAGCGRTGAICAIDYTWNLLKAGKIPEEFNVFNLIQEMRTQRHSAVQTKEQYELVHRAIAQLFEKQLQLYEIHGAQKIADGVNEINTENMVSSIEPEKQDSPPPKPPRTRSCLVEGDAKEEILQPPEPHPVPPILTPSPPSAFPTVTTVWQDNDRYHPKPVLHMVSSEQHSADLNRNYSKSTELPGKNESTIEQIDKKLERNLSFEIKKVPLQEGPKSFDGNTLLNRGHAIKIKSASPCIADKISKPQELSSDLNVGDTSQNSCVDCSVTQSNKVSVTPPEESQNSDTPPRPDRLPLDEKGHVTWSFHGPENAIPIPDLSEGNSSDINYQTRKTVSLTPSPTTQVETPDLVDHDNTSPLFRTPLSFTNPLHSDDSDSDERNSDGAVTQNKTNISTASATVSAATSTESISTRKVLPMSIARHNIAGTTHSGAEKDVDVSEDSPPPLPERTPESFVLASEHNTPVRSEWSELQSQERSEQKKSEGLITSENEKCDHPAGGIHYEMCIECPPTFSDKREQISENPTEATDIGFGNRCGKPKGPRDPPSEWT
Briefly: co-IP; Hek293 cells co-transfected with HA-PTPN12 and GFP-tagged FlnAs; 500 µg lysate in NETF buffer, 6 µg anti-HA 2 h at 4 °C, protein A beads; immunoblot.

Assay [2] addresses GST-RhoA-Q63L (UniProt P61586). Nature of the assay: pull-down; GST-RhoA-Q63L as bait with lysates of melanoma cells expressing FlnA-WT or FlnA-P637Q, protocol similar to the GST-PTPN12 pull-down; anti-p190RhoGAP immunoblot; only the target purified.

With “GFP-tagged-FlnA-WT (from UniProt P21333 1-2647)”, the binding result in assay [1] is reported as “binds”.

B1: p190RhoGAP (protein, UniProt Q9NRY4 1-1499)
chain: MMMARKQDVRIPTYNISVVGLSGTEKEKGQCGIGKSCLCNRFVRPSADEFHLDHTSVLSTSDFGGRVVNNDHFLYWGEVSRSLEDCVECKMHIVEQTEFIDDQTFQPHRSTALQPYIKRAAATKLASAEKLMYFCTDQLGLEQDFEQKQMPDGKLLVDGFLLGIDVSRGMNRNFDDQLKFVSNLYNQLAKTKKPIVVVLTKCDEGVERYIRDAHTFALSKKNLQVVETSARSNVNVDLAFSTLVQLIDKSRGKTKIIPYFEALKQQSQQIATAKDKYEWLVSRIVKNHNENWLSVSRKMQASPEYQDYVYLEGTQKAKKLFLQHIHRLKHEHIERRRKLYLAALPLAFEALIPNLDEIDHLSCIKAKKLLETKPEFLKWFVVLEETPWDATSHIDNMENERIPFDLMDTVPAEQLYEAHLEKLRNERKRVEMRRAFKENLETSPFITPGKPWEEARSFIMNEDFYQWLEESVYMDIYGKHQKQIIDKAKEEFQELLLEYSELFYELELDAKPSKEKMGVIQDVLGEEQRFKALQKLQAERDALILKHIHFVYHPTKETCPSCPACVDAKIEHLISSRFIRPSDRNQKNSLSDPNIDRINLVILGKDGLARELANEIRALCTNDDKYVIDGKMYELSLRPIEGNVRLPVNSFQTPTFQPHGCLCLYNSKESLSYVVESIEKSRESTLGRRDNHLVHLPLTLILVNKRGDTSGETLHSLIQQGQQIASKLQCVFLDPASAGIGYGRNINEKQISQVLKGLLDSKRNLNLVSSTASIKDLADVDLRIVMCLMCGDPFSADDILFPVLQSQTCKSSHCGSNNSVLLELPIGLHKKRIELSVLSYHSSFSIRKSRLVHGYIVFYSAKRKASLAMLRAFLCEVQDIIPIQLVALTDGAVDVLDNDLSREQLTEGEEIAQEIDGRFTSIPCSQPQHKLEIFHPFFKDVVEKKNIIEATHMYDNAAEACSTTEEVFNSPRAGSPLCNSNLQDSEEDIEPSYSLFREDTSLPSLSKDHSKLSMELEGNDGLSFIMSNFESKLNNKVPPPVKPKPPVHFEITKGDLSYLDQGHRDGQRKSVSSSPWLPQDGFDPSDYAEPMDAVVKPRNEEENIYSVPHDSTQGKIITIRNINKAQSNGSGNGSDSEMDTSSLERGRKVSIVSKPVLYRTRCTRLGRFASYRTSFSVGSDDELGPIRKKEEDQASQGYKGDNAVIPYETDEDPRRRNILRSLRRNTKKPKPKPRPSITKATWESNYFGVPLTTVVTPEKPIPIFIERCIEYIEATGLSTEGIYRVSGNKSEMESLQRQFDQDHNLDLAEKDFTVNTVAGAMKSFFSELPDPLVPYNMQIDLVEAHKINDREQKLHALKEVLKKFPKENHEVFKYVISHLNKVSHNNKVNLMTSENLSICFWPTLMRPDFSTMDALTATRTYQTIIELFIQQCPFFFYNRPITEPPGARPSSPSAVASTVPFLTSTPVTSQPSPPQSPPPTPQSPMQPLLPSQLQAEHTL
As for B1, the binding result in assay [2] is “binds”.
